Some of the results follow.
Legend:
Assay in all cases: log2 fold change, soluble protein after heating vs DMSO (PISA); higher = thermal stabilisation; K562 cells, 10 uM, 30 min; active = over 0.2 and 3.5 SD of the protein, either way, in both replicates (recomputed)
saracatinib = compound: CN1CCN(CCOc2cc(OC3CCOCC3)c3c(Nc4c(Cl)ccc5c4OCO5)ncnc3c2)CC1 [saracatinib]
Outline: (§1)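 Aliquots of K562 cells (2×10^6 cells/mL) treated with 10 μM compound for 30 min were heated for 3 min over 48°C-58°C. After pooling and extraction in PBS with 0.5% NP-40 at 4°C, soluble protein from a 21,000xg, 90 min spin was quantified by TMTpro 16plex LC-MS/MS with channel sums equalised. Thermal stability is expressed against control samples, from duplicates, as a log2 fold change.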

Protein sequences, listed by entry. Tags and fused reporters are not part of them. Lines headed by an entry give the natural chain unless they say otherwise; changes in a name come on top.
UniProt Q8N4S0: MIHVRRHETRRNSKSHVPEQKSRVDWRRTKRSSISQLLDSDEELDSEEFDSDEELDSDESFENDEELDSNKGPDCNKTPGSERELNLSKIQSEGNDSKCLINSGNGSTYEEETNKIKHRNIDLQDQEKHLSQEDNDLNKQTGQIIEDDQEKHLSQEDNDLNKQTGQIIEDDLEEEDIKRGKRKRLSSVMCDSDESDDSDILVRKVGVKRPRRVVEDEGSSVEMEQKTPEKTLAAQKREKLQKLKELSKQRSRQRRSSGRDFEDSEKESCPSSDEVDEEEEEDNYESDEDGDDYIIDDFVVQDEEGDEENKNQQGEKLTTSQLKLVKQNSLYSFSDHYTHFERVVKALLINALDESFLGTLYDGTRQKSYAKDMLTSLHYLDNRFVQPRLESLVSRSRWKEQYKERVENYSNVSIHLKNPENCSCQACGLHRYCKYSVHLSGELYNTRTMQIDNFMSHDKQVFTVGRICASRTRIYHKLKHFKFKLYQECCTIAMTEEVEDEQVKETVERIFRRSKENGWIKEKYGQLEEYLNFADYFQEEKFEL
UniProt Q2TAC2: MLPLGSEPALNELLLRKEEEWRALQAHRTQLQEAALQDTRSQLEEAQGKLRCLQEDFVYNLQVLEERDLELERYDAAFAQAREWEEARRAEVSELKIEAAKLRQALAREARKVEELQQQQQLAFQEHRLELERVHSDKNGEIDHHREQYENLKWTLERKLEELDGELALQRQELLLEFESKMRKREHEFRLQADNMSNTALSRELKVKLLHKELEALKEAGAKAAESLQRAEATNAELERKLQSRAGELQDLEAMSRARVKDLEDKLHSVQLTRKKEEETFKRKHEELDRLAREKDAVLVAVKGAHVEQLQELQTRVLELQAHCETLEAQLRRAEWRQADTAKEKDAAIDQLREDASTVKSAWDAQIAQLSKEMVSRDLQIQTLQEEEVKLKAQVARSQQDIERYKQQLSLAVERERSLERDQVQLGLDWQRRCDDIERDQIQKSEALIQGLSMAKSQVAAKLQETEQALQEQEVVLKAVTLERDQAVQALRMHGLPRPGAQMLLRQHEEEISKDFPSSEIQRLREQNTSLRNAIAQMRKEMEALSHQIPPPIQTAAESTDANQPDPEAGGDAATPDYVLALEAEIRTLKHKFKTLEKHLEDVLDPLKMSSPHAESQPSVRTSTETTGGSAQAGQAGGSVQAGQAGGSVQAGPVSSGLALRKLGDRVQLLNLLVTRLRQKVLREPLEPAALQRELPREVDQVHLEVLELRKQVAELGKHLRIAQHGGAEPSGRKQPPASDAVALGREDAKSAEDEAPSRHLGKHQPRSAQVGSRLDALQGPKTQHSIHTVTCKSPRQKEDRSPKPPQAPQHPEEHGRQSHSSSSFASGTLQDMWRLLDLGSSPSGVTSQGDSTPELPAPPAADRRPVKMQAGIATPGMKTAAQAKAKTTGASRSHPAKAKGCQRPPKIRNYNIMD
UniProt Q8TCZ2: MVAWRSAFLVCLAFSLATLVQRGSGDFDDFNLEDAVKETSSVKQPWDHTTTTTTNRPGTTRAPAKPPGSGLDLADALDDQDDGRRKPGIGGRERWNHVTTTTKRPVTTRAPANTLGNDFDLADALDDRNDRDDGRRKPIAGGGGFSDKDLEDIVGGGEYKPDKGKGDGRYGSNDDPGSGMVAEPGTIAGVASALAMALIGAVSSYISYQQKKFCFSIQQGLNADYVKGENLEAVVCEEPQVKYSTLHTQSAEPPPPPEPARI
UniProt P24385, whole entry, looked up: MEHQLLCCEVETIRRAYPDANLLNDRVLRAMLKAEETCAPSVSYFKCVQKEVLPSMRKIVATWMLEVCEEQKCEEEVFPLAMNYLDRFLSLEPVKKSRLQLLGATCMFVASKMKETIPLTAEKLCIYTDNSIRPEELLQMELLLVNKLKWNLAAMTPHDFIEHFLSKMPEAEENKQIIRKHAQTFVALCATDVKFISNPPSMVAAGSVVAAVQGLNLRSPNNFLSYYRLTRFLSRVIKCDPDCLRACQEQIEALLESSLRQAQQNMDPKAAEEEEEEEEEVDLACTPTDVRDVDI
UniProt Q8N9Z2: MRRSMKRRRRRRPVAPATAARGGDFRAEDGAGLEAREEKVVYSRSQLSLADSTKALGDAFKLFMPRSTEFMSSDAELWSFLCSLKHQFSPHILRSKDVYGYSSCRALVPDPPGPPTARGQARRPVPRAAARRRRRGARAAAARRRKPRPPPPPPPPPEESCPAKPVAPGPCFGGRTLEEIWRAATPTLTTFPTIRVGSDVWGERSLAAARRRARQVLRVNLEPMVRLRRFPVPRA
UniProt P55210: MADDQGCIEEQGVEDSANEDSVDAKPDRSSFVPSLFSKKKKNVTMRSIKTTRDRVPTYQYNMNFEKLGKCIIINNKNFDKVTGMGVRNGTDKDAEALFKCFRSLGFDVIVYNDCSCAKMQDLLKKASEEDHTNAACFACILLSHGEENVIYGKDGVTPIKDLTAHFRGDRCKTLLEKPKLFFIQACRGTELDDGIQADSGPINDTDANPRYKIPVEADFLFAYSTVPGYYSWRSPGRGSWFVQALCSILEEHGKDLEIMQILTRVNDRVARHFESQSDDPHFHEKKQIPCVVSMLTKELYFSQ
UniProt P27701: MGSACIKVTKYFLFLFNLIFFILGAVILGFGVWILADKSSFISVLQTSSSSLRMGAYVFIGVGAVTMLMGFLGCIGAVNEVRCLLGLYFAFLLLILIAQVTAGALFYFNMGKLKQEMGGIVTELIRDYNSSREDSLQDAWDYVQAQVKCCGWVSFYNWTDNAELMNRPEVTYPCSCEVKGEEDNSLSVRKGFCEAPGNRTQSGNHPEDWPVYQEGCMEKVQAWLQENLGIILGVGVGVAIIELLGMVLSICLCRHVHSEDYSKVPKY
UniProt Q9HC52: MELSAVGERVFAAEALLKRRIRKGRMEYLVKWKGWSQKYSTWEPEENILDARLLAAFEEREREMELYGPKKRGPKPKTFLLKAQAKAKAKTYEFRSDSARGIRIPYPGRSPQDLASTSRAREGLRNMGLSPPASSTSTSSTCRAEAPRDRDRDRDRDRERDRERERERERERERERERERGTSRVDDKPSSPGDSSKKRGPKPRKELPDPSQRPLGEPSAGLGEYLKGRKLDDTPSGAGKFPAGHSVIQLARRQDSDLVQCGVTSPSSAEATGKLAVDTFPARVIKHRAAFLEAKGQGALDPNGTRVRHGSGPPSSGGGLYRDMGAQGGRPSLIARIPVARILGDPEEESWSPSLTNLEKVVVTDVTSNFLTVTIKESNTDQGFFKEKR
UniProt P30305: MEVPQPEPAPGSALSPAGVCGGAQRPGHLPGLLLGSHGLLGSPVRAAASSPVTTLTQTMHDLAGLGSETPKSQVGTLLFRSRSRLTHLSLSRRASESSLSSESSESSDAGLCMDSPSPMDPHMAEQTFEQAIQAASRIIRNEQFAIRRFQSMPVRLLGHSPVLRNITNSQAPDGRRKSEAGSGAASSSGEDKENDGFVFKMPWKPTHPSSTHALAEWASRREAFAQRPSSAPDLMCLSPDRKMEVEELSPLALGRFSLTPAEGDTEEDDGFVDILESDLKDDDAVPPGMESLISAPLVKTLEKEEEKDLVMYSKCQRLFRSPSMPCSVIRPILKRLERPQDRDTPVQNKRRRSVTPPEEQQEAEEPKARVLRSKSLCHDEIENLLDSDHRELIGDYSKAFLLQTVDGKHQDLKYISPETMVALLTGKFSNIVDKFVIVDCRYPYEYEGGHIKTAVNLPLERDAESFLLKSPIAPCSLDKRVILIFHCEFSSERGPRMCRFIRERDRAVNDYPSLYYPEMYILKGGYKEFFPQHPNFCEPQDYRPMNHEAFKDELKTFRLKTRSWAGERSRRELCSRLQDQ
UniProt O43439: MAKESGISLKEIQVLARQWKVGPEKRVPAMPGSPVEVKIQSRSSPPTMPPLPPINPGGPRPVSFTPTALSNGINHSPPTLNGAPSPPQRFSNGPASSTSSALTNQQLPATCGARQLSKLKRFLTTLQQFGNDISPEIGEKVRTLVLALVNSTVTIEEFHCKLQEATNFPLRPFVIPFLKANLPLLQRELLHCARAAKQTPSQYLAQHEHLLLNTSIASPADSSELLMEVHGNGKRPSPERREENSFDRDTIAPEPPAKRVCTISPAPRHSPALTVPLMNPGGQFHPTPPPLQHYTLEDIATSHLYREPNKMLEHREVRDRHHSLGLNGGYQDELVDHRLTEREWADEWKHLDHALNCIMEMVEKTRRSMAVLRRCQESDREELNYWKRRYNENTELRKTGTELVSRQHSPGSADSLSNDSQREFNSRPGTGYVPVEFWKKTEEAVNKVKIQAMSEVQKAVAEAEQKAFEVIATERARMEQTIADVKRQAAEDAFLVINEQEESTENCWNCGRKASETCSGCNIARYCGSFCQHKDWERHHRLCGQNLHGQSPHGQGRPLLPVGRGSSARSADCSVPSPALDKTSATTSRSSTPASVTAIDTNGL
UniProt P30304: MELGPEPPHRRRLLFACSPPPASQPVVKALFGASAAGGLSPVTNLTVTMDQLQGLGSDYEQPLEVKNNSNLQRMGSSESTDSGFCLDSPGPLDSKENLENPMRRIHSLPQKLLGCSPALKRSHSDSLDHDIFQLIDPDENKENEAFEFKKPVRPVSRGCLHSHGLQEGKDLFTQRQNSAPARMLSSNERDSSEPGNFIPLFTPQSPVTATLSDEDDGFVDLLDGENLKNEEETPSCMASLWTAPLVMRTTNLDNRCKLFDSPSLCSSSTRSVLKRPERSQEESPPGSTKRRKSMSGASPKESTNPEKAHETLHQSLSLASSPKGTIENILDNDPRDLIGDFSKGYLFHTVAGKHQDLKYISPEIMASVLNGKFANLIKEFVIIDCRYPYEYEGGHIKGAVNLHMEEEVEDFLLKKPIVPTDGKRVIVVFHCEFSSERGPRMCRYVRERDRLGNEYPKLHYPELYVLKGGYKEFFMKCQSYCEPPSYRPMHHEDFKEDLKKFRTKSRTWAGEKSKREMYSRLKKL
UniProt O60583: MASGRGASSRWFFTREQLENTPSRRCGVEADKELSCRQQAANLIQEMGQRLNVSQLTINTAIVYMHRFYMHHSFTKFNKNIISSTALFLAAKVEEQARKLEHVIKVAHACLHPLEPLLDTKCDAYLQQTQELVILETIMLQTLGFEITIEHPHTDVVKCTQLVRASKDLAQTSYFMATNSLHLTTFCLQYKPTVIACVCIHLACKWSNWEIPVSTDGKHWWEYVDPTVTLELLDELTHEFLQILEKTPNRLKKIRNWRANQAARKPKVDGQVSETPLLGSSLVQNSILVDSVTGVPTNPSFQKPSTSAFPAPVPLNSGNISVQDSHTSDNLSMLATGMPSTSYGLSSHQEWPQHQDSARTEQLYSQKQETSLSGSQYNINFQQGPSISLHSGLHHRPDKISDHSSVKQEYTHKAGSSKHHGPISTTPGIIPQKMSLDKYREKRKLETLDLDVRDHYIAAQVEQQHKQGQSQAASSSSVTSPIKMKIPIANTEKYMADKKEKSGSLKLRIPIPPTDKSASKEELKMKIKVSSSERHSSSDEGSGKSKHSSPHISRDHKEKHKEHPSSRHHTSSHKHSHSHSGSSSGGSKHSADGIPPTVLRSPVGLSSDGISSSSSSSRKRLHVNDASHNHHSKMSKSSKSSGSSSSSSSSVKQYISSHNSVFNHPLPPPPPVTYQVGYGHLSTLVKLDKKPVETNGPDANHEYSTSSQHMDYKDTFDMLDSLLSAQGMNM
UniProt Q9BWV3: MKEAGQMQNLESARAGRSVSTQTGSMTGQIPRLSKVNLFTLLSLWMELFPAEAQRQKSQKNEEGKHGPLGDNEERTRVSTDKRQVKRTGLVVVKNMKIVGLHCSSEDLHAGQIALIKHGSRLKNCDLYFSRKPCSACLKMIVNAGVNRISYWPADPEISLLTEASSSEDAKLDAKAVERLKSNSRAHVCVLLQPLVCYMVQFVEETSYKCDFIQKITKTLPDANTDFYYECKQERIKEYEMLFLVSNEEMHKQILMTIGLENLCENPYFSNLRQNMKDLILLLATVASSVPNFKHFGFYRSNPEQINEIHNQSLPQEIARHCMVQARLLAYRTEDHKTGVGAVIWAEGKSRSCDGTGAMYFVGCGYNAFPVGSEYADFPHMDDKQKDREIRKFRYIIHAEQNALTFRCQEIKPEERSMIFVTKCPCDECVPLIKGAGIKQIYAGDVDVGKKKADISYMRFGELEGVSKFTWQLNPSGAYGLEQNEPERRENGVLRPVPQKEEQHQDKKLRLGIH
UniProt P30281: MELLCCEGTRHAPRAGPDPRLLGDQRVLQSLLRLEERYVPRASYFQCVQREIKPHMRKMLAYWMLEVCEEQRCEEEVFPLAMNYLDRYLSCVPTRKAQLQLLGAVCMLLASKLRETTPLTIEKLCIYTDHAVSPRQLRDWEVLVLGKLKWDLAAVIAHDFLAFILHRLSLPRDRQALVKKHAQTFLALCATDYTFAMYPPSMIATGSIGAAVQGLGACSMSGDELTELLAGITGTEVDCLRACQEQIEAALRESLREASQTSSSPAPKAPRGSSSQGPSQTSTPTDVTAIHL

Tubastatin A = compound: CN1CCc2c(c3ccccc3n2Cc2ccc(C(=O)NO)cc2)C1 [Tubastatin A]
Outline: as §1

defactinib = compound: CNC(=O)c1ccc(Nc2ncc(C(F)(F)F)c(NCc3nccnc3N(C)S(C)(=O)=O)n2)cc1 [defactinib]
Outline: as §1

[1] = compound: CNc1nc(-c2ccc3c(N)n[nH]c3c2)cc(N2C[C@@H](C(=O)NC3CCCCC3)CC[C@H]2C)n1
Outline: as §1

[2] = compound: COC(=O)[C@H](CCSC)NC(=O)C1=C(C=C(C=C1)NC[C@H](CS)N)C2=CC=CC=C2
Outline: as §1

[3] = compound: CNC(=O)C1=CC=CC=C1NC2=NC(=NC=C2Cl)NC3=C(C=C(C=C3)N4CCOCC4)OC
Outline: as §1

rucaparib = compound: CNCc1ccc(-c2[nH]c3cc(F)cc4c3c2CCNC4=O)cc1 [rucaparib]
Outline: as §1

encorafenib = compound: COC(=O)N[C@@H](C)CNc1nccc(-c2cn(C(C)C)nc2-c2cc(Cl)cc(NS(C)(=O)=O)c2F)n1 [encorafenib]
Outline: as §1

sotrastaurin = compound: CN1CCN(c2nc(C3=C(c4c[nH]c5ccccc45)C(=O)NC3=O)c3ccccc3n2)CC1 [sotrastaurin]
Outline: as §1

alvocidib = compound: CN1CC[C@H](c2c(O)cc(O)c3c(=O)cc(-c4ccccc4Cl)oc23)[C@H](O)C1 [alvocidib]
Outline: as §1

Measured: log2 fold change

CD37 (UniProt P11049)
inactive: saracatinib 0.048 | Tubastatin A -0.145 | defactinib -0.171 | [1] -0.084 | [2] 0.284

CCDC82 (UniProt Q8N4S0)
inactive: saracatinib 0 | Tubastatin A 0.102 | [3] 0.03 | defactinib -0.09 | rucaparib -0.069 | [1] -0.139 | encorafenib 0.021 | [2] -0.037

CASP10 isoform 4 (UniProt Q92851)
inactive: saracatinib 0.034 | sotrastaurin -0.138 | Tubastatin A 0.127 | defactinib 0.028 | rucaparib 0.111 | [1] 0.04 | encorafenib 0.164 | [2] -0.039

CCDC57 (UniProt Q2TAC2)
inactive: sotrastaurin 0.059 | Tubastatin A 0.026 | [3] 0.04 | defactinib 0.02 | rucaparib -0.15 | encorafenib 0.041 | [2] 0.007

Random excerpt: 3 records from the list, in no set order.
CCDC82 (UniProt Q8N4S0)
inactive: saracatinib 0 | Tubastatin A 0.102 | [3] 0.03 | defactinib -0.09 | rucaparib -0.069 | [1] -0.139 | encorafenib 0.021 | [2] -0.037

CD37 (UniProt P11049)
inactive: saracatinib 0.048 | Tubastatin A -0.145 | defactinib -0.171 | [1] -0.084 | [2] 0.284

CASP10 isoform 4 (UniProt Q92851)
inactive: saracatinib 0.034 | sotrastaurin -0.138 | Tubastatin A 0.127 | defactinib 0.028 | rucaparib 0.111 | [1] 0.04 | encorafenib 0.164 | [2] -0.039

(continued)

CD99L2 isoform 5 (UniProt Q8TCZ2)
inactive: saracatinib 0.07 | alvocidib 0.02 | Tubastatin A 0.073 | [3] -0.047 | defactinib -0.013 | [1] -0.023 | [2] 0.205

CCNE2 (UniProt O96020)
inactive: saracatinib 0.218 | [3] -0.329 | [1] -0.098

CD99 (UniProt P14209)
inactive: sotrastaurin 0.064 | alvocidib 0.018 | Tubastatin A 0.112 | [3] -0.01 | defactinib 0.052 | rucaparib -0.068 | encorafenib -0.071 | [2] 0.084

CCND1 (UniProt P24385)
inactive: sotrastaurin -0.127

CCDC71L isoform 2 (UniProt Q8N9Z2)
inactive: sotrastaurin 0.036 | alvocidib 0.194 | Tubastatin A -0.061 | [3] 0.056 | rucaparib -0.465 | encorafenib 0.124

CASP7 isoform 3 (UniProt P55210)
inactive: saracatinib 0.185 | [3] 0.151 | rucaparib -0.013 | [1] 0.254 | encorafenib 0.014

CD164 (UniProt Q04900)
inactive: sotrastaurin -0.123 | alvocidib -0.074 | [3] -0.054 | defactinib 0.023 | rucaparib 0.071 | encorafenib 0.045 | [2] 0.03

CCNL2 (UniProt Q96S94)
inactive: sotrastaurin 0

CD82 (UniProt P27701)
inactive: sotrastaurin -0.024 | [3] -0.058

CCNL1 (UniProt Q9UK58)
inactive: [3] -0.179

CDC37 (UniProt K7EKQ2)
inactive: sotrastaurin -0.276 | rucaparib -0.095 | encorafenib 0.044

CCDC175 (UniProt P0C221)
inactive: saracatinib -0.125 | alvocidib -0.1 | [3] -0.013 | defactinib -0.029 | rucaparib -0.026 | [1] 0.059 | encorafenib 0.032 | [2] -0.021

CD2BP2 (UniProt O95400)
inactive: saracatinib 0.11 | Tubastatin A -0.029 | [3] -0.008 | defactinib -0.33 | [1] -0.172 | [2] 0.214

CDC25C (UniProt P30307)
inactive: saracatinib -0.109 | alvocidib 0.025 | Tubastatin A -0.068 | [1] -0.045

CCND2 (UniProt P30279)
inactive: alvocidib -0.097

CCDC102A (UniProt Q96A19)
inactive: alvocidib 0.006 | [3] 0.102 | defactinib -0.034 | rucaparib 0.029 | encorafenib -0.141 | [2] -0.19

CCDC186 (UniProt Q7Z3E2)
inactive: saracatinib -0.03 | sotrastaurin 0.05 | [3] -0.309 | defactinib -0.205 | rucaparib -0.056 | [1] -0.013 | encorafenib -0.038 | [2] -0.036

CCNE1 (UniProt P24864)
inactive: saracatinib 0.024 | Tubastatin A 0.091 | [3] -0.259 | defactinib -0.014 | [1] -0.127 | [2] 0.116

CBX8 (UniProt Q9HC52)
inactive: saracatinib -0.102 | alvocidib -0.101 | rucaparib 0.124 | [1] -0.139 | encorafenib 0.051

CD69 (UniProt Q07108)
inactive: sotrastaurin -0.059 | alvocidib 0.142 | defactinib -0.098 | [2] 0.045

CASK (UniProt O14936)
inactive: saracatinib -0.068 | [3] -0.064 | [1] -0.009

CAV1 (UniProt F8WDM7)
inactive: alvocidib 0.055

CDC25B isoform 4 (UniProt P30305)
inactive: sotrastaurin -0.018 | [3] -0.019 | defactinib -0.25 | rucaparib 0.054 | encorafenib -0.059 | [2] 0.087

CBFA2T2 isoform 4 (UniProt O43439)
inactive: [3] 0.001

CDC25A (UniProt P30304)
inactive: sotrastaurin 0.03 | [3] -0.042 | rucaparib -0.002 | encorafenib -0.051

CBFB (UniProt Q13951)
inactive: saracatinib -0.182 | alvocidib -0.03 | Tubastatin A 0.007 | [3] -0.002 | defactinib -0.06 | rucaparib 0.031 | [1] 0.009 | encorafenib 0.044 | [2] -0.04

CDC27 (UniProt G5EA36)
inactive: alvocidib 0 | Tubastatin A 0.13 | [3] -0.036

CD68 (UniProt P34810)
inactive: sotrastaurin -0.031 | [3] 0.043

CCNT2 (UniProt O60583)
inactive: saracatinib -0.016 | sotrastaurin -0.372 | Tubastatin A 0.157 | rucaparib -0.112 | [1] 0.04 | encorafenib 0.119

CCDC28B (UniProt Q9BUN5)
inactive: sotrastaurin 0.162 | Tubastatin A 0.02 | [3] -0.101 | defactinib 0.071 | [2] 0.15

CDADC1 (UniProt Q9BWV3)
inactive: defactinib 0.106 | [2] -0.059

CBX3 (UniProt B8ZZ43)
inactive: saracatinib -0.14 | [1] 0.119

CASP9 (UniProt P55211)
inactive: saracatinib -0.206 | sotrastaurin -0.25 | Tubastatin A 0.098 | defactinib -0.165 | rucaparib 0.161 | [1] -0.051 | encorafenib 0.012 | [2] -0.035

CCND3 (UniProt P30281)
inactive: saracatinib 0.03 | Tubastatin A 0.242 | [3] -0.018 | defactinib -0.037 | rucaparib 0.113 | [1] -0.067 | encorafenib -0.11 | [2] 0
